This test has as its system P388 leukemia ip, CD2F1 mice, survival T/C. The test can be described thus: NCI In Vivo Anticancer Drug Screen. Data for tumor model P388 Leukemia (intraperitoneal) in CD2F1 (CDF1) mice. The note with it: T/C endpoint: median survival time, higher T/C = longer survival.
Where [1] appears, read: dose: 50.0 mg/kg/injection, schedule: Q04DX003 (ip), vehicle: Klucel (hydroxypropylcellulose) (HPC).
Where [2] appears, read: dose: 100.0 mg/kg/injection, schedule: Q01DX009 (ip), vehicle: saline.
Where [3] appears, read: dose: 50.0 mg/kg/injection, schedule: Q01DX009 (ip), vehicle: saline.
Where [4] appears, read: dose: 200.0 mg/kg/injection, schedule: Q01DX009 (ip), vehicle: saline with Tween-80.
[5] abbreviates: dose: 200.0 mg/kg/injection, schedule: Q01DX009 (ip), vehicle: Klucel (hydroxypropylcellulose) (HPC).

Molecules are shown by their SMILES. The list is a part of this screen's results and no random one: it gathers tests that were run many times, whatever their T/C, doses with no T/C, and many T/C values between a quarter and a half above the control. Other doses and runs of a compound stand elsewhere. T/C is the treated group as % of the vehicle group. Some entries give survivors of the animals treated and no T/C: the source files T/C as zero there, which appears to mark a toxic dose or a test without result, not a measured value. Some doses without a T/C left all or most animals alive at the check, yet need not have been tolerated: the source hardly ever lists a survival T/C far under the control, and the zero likely stands for such cases as well. Survivors were counted at the toxicity check, usually on the fifth day, unless a day is given; later deaths do not show. Schedules are NCI's codes, read here as Q, the interval in days (D) or hours (H), X, the number of doses. Some structures stand for samples that the source files as different forms (salt, stereo form or complex); doses refer to the form tested. Where survival is the endpoint, the PubChem record calls one and a half times the control and up active, and a quarter to a half above the control has no call in these data; cut-offs in other NCI protocols can differ.

On to `CC([Se])=Nc1ccc(Br)cc1`, for which the survivor count under setting [1] is recorded as 0 of 6; the survivor count (dose: 100.0 mg/kg/injection, schedule: Q04DX003 (ip), vehicle: Klucel (hydroxypropylcellulose) (HPC)) was 0 of 6; the survivor count (dose: 200.0 mg/kg/injection, schedule: Q04DX003 (ip), vehicle: Klucel (hydroxypropylcellulose) (HPC)) was 0 of 6; the survivor count (dose: 400.0 mg/kg/injection, schedule: Q04DX003 (ip), vehicle: Klucel (hydroxypropylcellulose) (HPC)) is 0 of 6.
As for `CC(C)c1nc(N)nc(N)n1`, under setting [2], the survivor count was 3 of 6.
As to `CC(CNC(=O)CCOS(C)(=O)=O)NC(=O)CCOS(C)(=O)=O` (centres undefined), under “dose: 25.0 mg/kg/injection, schedule: Q04DX003 (ip), vehicle: saline with Tween-80”, the T/C was 127 % of control.
With `O=C(Nc1ccc(NC(=O)Nc2ccc(C3=NCCN3)cc2)cc1)Nc1ccc(C2=NCCN2)cc1`, the T/C by setting is: (dose: 250.0 mg/kg/injection, schedule: Q01DX010 (ip), vehicle: saline) 131 % of control; (dose: 375.0 mg/kg/injection, schedule: Q01DX010 (ip), vehicle: saline) 131 % of control.
Consider `CNC(=O)C1CCCN1C(=O)C(Cl)Cl` (centres undefined), for which, under setting [3], the survivor count is listed as 0 of 6.
Take `C[CH2][Ge]([CH2]C)[CH2]/C=C\[CH2][Ge]([CH2]C)[CH2]C`: under setting [4], the survivor count was 4 of 6.
For `CCCCCCC(=O)CC(SCC(NC(C)=O)C(=O)O)c1ccccc1Cl` (centres undefined), where the note is “dose: 240.0 mg/kg/injection, schedule: Q01DX005 (ip), vehicle: saline”, the survivor count is given as 1 of 6.
Take `O=C(Oc1ccccc1)c1cc2ccccc2cc1O`: the survivor count is recorded as 6 of 6 under setting [3]; 6 of 6 under setting [2]; 5 of 6 (dose: 200.0 mg/kg/injection, schedule: Q01DX009 (ip), vehicle: saline).
As for `CCN(CC)Cc1c(C)[nH]c2cc(Cl)ccc2c1=O`, the survivor count (dose: 200.0 mg/kg/injection, schedule: Q01DX001 (ip), vehicle: saline with Tween-80) is listed as 3 of 6 and the survivor count (dose: 400.0 mg/kg/injection, schedule: Q01DX001 (ip), vehicle: saline with Tween-80) is reported as 0 of 6.
For the molecule `N=c1nc2ccc3ccccc3c2nn1-c1ccc([N+](=O)[O-])cc1`, the survivor count is, setting by setting: (dose: 50.0 mg/kg/injection, schedule: Q01DX009 (ip), vehicle: Klucel (hydroxypropylcellulose) (HPC)) 5 of 6; (dose: 100.0 mg/kg/injection, schedule: Q01DX009 (ip), vehicle: Klucel (hydroxypropylcellulose) (HPC)) 6 of 6; under setting [5], 3 of 6.
Regarding `CCNC(=O)OCc1ccco1`, the survivor count is given as 0 of 6 under setting [3]; 0 of 6 (dose: 100.0 mg/kg/injection, schedule: Q01DX009 (ip), vehicle: saline with Tween-80); 0 of 6 under setting [4].
In the case of `C[C@H]1CCC/C=C/[C@@H]2C[C@H](O)C[C@H]2[C@H](O)/C=C/C(=O)O1`, the survivor count under setting [1] is 6 of 6.
`CNCCC(Oc1ccc(C(F)(F)F)cc1)c1ccccc1` (centres undefined): the survivor count reads like this: (dose: 100.0 mg/kg/injection, schedule: Q04DX002 (ip), vehicle: saline with Tween-80) 6 of 6; (dose: 200.0 mg/kg/injection, schedule: Q04DX002 (ip), vehicle: saline with Tween-80) 0 of 6; (dose: 400.0 mg/kg/injection, schedule: Q04DX002 (ip), vehicle: saline with Tween-80) 0 of 6.
In the case of `c1ccc2c(c1)CCNC2C1NCCc2ccccc21` (centres undefined), the survivor count under setting [5] was 0 of 6; the survivor count (dose: 400.0 mg/kg/injection, schedule: Q01DX001 (ip), vehicle: Klucel (hydroxypropylcellulose) (HPC)) is reported as 0 of 6; the survivor count (dose: 400.0 mg/kg/injection, schedule: Q01DX009 (ip), vehicle: Klucel (hydroxypropylcellulose) (HPC)) was 0 of 6.

Source of the values: PubChem BioAssay AID330 (DTP/NCI, 2004).
